The supplement of paper PMC4604168 (melanoma cell lines)
The list shows a part of the results. Many values rest on one well or one pass, so single values are uncertain.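 The apoptosis fraction was the count of cleaved-PARP antibody-stained nuclei relative to all DNA-stained nuclei, imaged in 1,536-well plates. Screening doses were set so most cells survived, and baseline and induced cleaved-PARP levels vary greatly across cell lines.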

Columns and labels:
Test in all cases: cleaved PARP positive nuclei fraction relative to DMSO control; melanoma cells; higher = more apoptosis
Conditions in all cases: library dose: low library concentration; 72 h
MZ2-MEL = system: MZ2-MEL
MeWo = system: MeWo
RPMI7951 = system: RPMI7951
RVH-421 = system: RVH-421
SkMel28 = system: SkMel28
SkMel2 = system: SkMel2
SkMel30 = system: SkMel30
UACC62 = system: UACC62
WM115 = system: WM115
WM1716 = system: WM1716
WM1745 = system: WM1745
WM3526 = system: WM3526
WM3619 = system: WM3619
WM451Lu = system: WM451Lu
SkMel5 = system: SkMel5
UACC257 = system: UACC257

| SMILES | cleaved PARP positive nuclei fraction (MZ2-MEL) [%] | cleaved PARP positive nuclei fraction (MeWo) [%] | cleaved PARP positive nuclei fraction (RPMI7951) [%] | cleaved PARP positive nuclei fraction (RVH-421) [%] | cleaved PARP positive nuclei fraction (SkMel28) [%] | cleaved PARP positive nuclei fraction (SkMel2) [%] | cleaved PARP positive nuclei fraction (SkMel30) [%] | cleaved PARP positive nuclei fraction (UACC62) [%] | cleaved PARP positive nuclei fraction (WM115) [%] | cleaved PARP positive nuclei fraction (WM1716) [%] | cleaved PARP positive nuclei fraction (WM1745) [%] | cleaved PARP positive nuclei fraction (WM3526) [%] | cleaved PARP positive nuclei fraction (WM3619) [%] | cleaved PARP positive nuclei fraction (WM451Lu) [%] | cleaved PARP positive nuclei fraction (SkMel5) [%] | cleaved PARP positive nuclei fraction (UACC257) [%] |
| --- | --- | --- | --- | --- | --- | --- | --- | --- | --- | --- | --- | --- | --- | --- | --- | --- |
| Cc1cn(-c2cc(NC(=O)c3ccc(C)c(Nc4nccc(-c5cccnc5)n4)c3)cc(C(F)(F)F)c2)cn1 [nilotinib] + Cn1nnc2c(C(N)=O)ncn2c1=O [temozolomide] (first compound 0.2 µM, partner dose 2 µM) | 17.6 | 99.7 | 90.5 | 102 | 85.5 | 324 | 24.8 | 107 | 89.8 | 233 | 114 | 102 | 84.5 | 21.8 | – | – |
| CC[C@]1(O)C[C@H]2CN(CCc3c([nH]c4ccccc34)[C@@](C(=O)OC)(c3cc4c(cc3OC)N(C=O)[C@H]3[C@@](O)(C(=O)OC)[C@H](OC(C)=O)[C@]5(CC)C=CCN6CC[C@]43[C@@H]65)C2)C1 [vincristine] + CO[C@H]1C[C@@H]2CC[C@@H](C)[C@@](O)(O2)C(=O)C(=O)N2CCCC[C@H]2C(=O)O[C@H]([C@H](C)C[C@@H]2CC[C@@H](OCCO)[C@H](OC)C2)CC(=O)[C@H](C)/C=C(\C)[C@@H](O)[C@@H](OC)C(=O)[C@H](C)C[C@H](C)/C=C/C=C/C=C/1C [everolimus] (first compound 0.0001 µM, partner dose 0.02 µM) | 85 | 285 | 164 | 131 | 747 | – | 178 | 1580 | 2350 | 189 | 129 | 71.6 | 207 | 203 | – | – |
| O=C(/C=C/c1cccnc1)NCCCCC1CCN(C(=O)c2ccccc2)CC1 + CN1CCN(c2ccc3nc(-c4c(N)c5c(F)cccc5[nH]c4=O)[nH]c3c2)CC1 [Dovitinib] (first compound 0.01 µM, partner dose 0.1 µM) | 273 | 86.9 | 43 | 169 | 101 | 1260 | 149 | 34.5 | 112 | 158 | 105 | 76.9 | 107 | 80.2 | – | – |
| COc1cc([C@@H]2c3cc4c(cc3[C@@H](O[C@@H]3O[C@@H]5CO[C@@H](C)O[C@H]5[C@H](O)[C@H]3O)[C@H]3COC(=O)[C@H]23)OCO4)cc(OC)c1O [etoposide] + CCCCCCCCCCCCCCCCCCOP(=O)([O-])OC1CC[N+](C)(C)CC1 [Perifosine] (first compound 0.02 µM, partner dose 0.4 µM) | 89.3 | 55.8 | 94.6 | 137 | 87.2 | 143 | 34.1 | 111 | 106 | 72.3 | 79 | 67.9 | – | 33 | – | – |
| N#CC[C@H](C1CCCC1)n1cc(-c2ncnc3[nH]ccc23)cn1 [ruxolitinib] + Cn1c(=O)n(-c2ccc(C(C)(C)C#N)cc2)c2c3cc(-c4cnc5ccccc5c4)ccc3ncc21 [NVP-BEZ235] (first compound 1 µM, partner dose 0.004 µM) | 168 | 28.1 | 99.1 | 182 | 141 | 157 | 31.8 | 146 | 23.1 | 52.3 | 93.7 | 123 | 92.8 | 108 | – | – |
| N#CC[C@H](C1CCCC1)n1cc(-c2ncnc3[nH]ccc23)cn1 [ruxolitinib] + CC[C@]1(O)C[C@H]2CN(CCc3c([nH]c4ccccc34)[C@@](C(=O)OC)(c3cc4c(cc3OC)N(C=O)[C@H]3[C@@](O)(C(=O)OC)[C@H](OC(C)=O)[C@]5(CC)C=CCN6CC[C@]43[C@@H]65)C2)C1 [vincristine] (first compound 1 µM, partner dose 0.0001 µM) | 79.8 | 172 | 134 | 120 | 93.4 | 121 | 102 | 118 | 211 | 511 | 99.2 | 44.9 | 144 | 445 | – | – |
| Cc1cn(-c2cc(NC(=O)c3ccc(C)c(Nc4nccc(-c5cccnc5)n4)c3)cc(C(F)(F)F)c2)cn1 [nilotinib] + C[C@@H](N)c1ccc(C(=O)Nc2ccnc3[nH]ccc23)cc1 [RKI983] (first compound 0.2 µM, partner dose 0.4 µM) | 137 | 115 | 238 | 45.4 | 104 | 216 | 147 | 131 | 109 | 136 | 116 | 317 | 83.3 | 162 | – | – |
| Cc1ccc(Nc2nccc(N(C)c3ccc4c(C)n(C)nc4c3)n2)cc1S(N)(=O)=O [Pazopanib] + C[C@@H](Oc1cc(-c2cnn(C3CCNCC3)c2)cnc1N)c1c(Cl)ccc(F)c1Cl [Crizotinib] (first compound 0.4 µM, partner dose 0.2 µM) | 34.8 | 431 | 112 | 122 | 85.5 | 118 | 78.6 | 115 | 112 | 178 | 110 | 101 | 102 | 97.6 | – | – |
| Cc1ccc(Nc2nccc(N(C)c3ccc4c(C)n(C)nc4c3)n2)cc1S(N)(=O)=O [Pazopanib] + Cn1cnc2c(F)c(Nc3ccc(Br)cc3Cl)c(C(=O)NOCCO)cc21 [selumetinib] (first compound 0.4 µM, partner dose 0.015 µM) | 93.8 | 43.3 | 55 | 56.6 | 166 | 105 | 69.3 | 149 | 30.4 | 127 | 108 | 69.6 | 111 | 67.9 | – | – |
| Cc1ccc(Nc2nccc(N(C)c3ccc4c(C)n(C)nc4c3)n2)cc1S(N)(=O)=O [Pazopanib] + CO[C@H]1C[C@@H]2CC[C@@H](C)[C@@](O)(O2)C(=O)C(=O)N2CCCC[C@H]2C(=O)O[C@H]([C@H](C)C[C@@H]2CC[C@@H](OCCO)[C@H](OC)C2)CC(=O)[C@H](C)/C=C(\C)[C@@H](O)[C@@H](OC)C(=O)[C@H](C)C[C@H](C)/C=C/C=C/C=C/1C [everolimus] (first compound 0.4 µM, partner dose 0.02 µM) | 152 | 409 | 26.3 | 71.9 | 143 | – | 112 | 181 | 48.4 | 963 | 97.7 | 57.3 | 115 | 103 | – | – |
| O=c1[nH]nc(Sc2ncc([N+](=O)[O-])s2)n1-c1ccc2c(c1)OCCO2 + COCC[n+]1c2c(n(Cc3cnccn3)c1C)C(=O)c1ccccc1C2=O [YM155] (first compound 0.2 µM, partner dose 0.0004 µM) | 106 | 201 | 177 | 42.7 | 93.2 | 118 | 47 | 304 | 195 | 70.9 | 95.5 | 170 | 176 | 356 | – | – |
| Cc1ccc(Nc2nccc(N(C)c3ccc4c(C)n(C)nc4c3)n2)cc1S(N)(=O)=O [Pazopanib] + COCC[n+]1c2c(n(Cc3cnccn3)c1C)C(=O)c1ccccc1C2=O [YM155] (first compound 0.4 µM, partner dose 0.0004 µM) | 78.1 | 64.9 | 49.1 | 144 | 184 | 159 | 115 | 115 | 95.6 | 208 | 101 | 102 | 96.9 | 77.1 | – | – |
| Cc1cn(-c2cc(NC(=O)c3ccc(C)c(Nc4nccc(-c5cccnc5)n4)c3)cc(C(F)(F)F)c2)cn1 [nilotinib] + Cn1sc(=O)n(Cc2ccccc2)c1=O [TDZD-8] (first compound 0.2 µM, partner dose 0.4 µM) | 63.6 | 111 | 62.5 | 36.5 | 109 | 85.9 | 87.2 | 140 | 85.7 | 56.7 | 101 | 283 | 67.6 | 80.4 | – | – |
| Cc1ccc(Nc2nccc(N(C)c3ccc4c(C)n(C)nc4c3)n2)cc1S(N)(=O)=O [Pazopanib] + C[C@]1(O)C[C@@H](c2nc(-c3ccc4ccc(-c5ccccc5)nc4c3)c3c(N)nccn32)C1 [OSI906] (first compound 0.4 µM, partner dose 0.4 µM) | 36.8 | 45.9 | 130 | 59.3 | 41.3 | 54.7 | 333 | 10.9 | 81.5 | 51.7 | 128 | 77.6 | 102 | 101 | – | – |
| Cc1cc(Nc2cc(N3CCN(C)CC3)nc(Sc3ccc(NC(=O)C4CC4)cc3)n2)n[nH]1 [Tozasertib] + CCCS(=O)(=O)Nc1ccc(F)c(C(=O)c2c[nH]c3ncc(Cl)cc23)c1F [PLX4720] (first compound 0.006 µM, partner dose 0.08 µM) | 101 | 97.5 | 75.1 | 72.1 | 86.1 | 107 | 117 | 1270 | 167 | 33.5 | 105 | 290 | 99.1 | 32.4 | – | – |
| N#CC[C@H](C1CCCC1)n1cc(-c2ncnc3[nH]ccc23)cn1 [ruxolitinib] + CCCCCCCCCCCCCCCCCCOP(=O)([O-])OC1CC[N+](C)(C)CC1 [Perifosine] (first compound 1 µM, partner dose 0.4 µM) | 86.8 | 76.4 | 127 | 159 | 70.4 | 67.7 | 76.9 | 17.7 | 48.1 | 18 | 82.8 | 69.2 | 93.3 | 191 | – | – |
| CCCCCCCCCCCCCCCCCCOP(=O)([O-])OC1CC[N+](C)(C)CC1 [Perifosine] + Cn1cnc2c(F)c(Nc3ccc(Br)cc3Cl)c(C(=O)NOCCO)cc21 [selumetinib] (first compound 0.4 µM, partner dose 0.015 µM) | 135 | 167 | 115 | 47.7 | 42.1 | 120 | 161 | 20.6 | 109 | 198 | 94.2 | 46.3 | 101 | 25.5 | – | – |
| O=C(Nc1cc(C(F)(F)F)cc(C(F)(F)F)c1)c1cc(Cl)ccc1O + Cc1cc([N+](=O)[O-])ccc1NS(=O)(=O)c1cc(Cl)ccc1Cl [FH535] (first compound 0.016 µM, partner dose 1 µM) | – | 59.1 | 71.9 | 144 | 75.3 | 96.6 | 105 | 118 | 77.5 | 110 | 86.7 | 67.5 | 91.5 | 76.5 | 94.6 | 414 |

Full records, quoted from the list. Values in the order: cleaved PARP positive nuclei fraction (MZ2-MEL) [%]	cleaved PARP positive nuclei fraction (MeWo) [%]	cleaved PARP positive nuclei fraction (RPMI7951) [%]	cleaved PARP positive nuclei fraction (RVH-421) [%]	cleaved PARP positive nuclei fraction (SkMel28) [%]	cleaved PARP positive nuclei fraction (SkMel2) [%]	cleaved PARP positive nuclei fraction (SkMel30) [%]	cleaved PARP positive nuclei fraction (UACC62) [%]	cleaved PARP positive nuclei fraction (WM115) [%]	cleaved PARP positive nuclei fraction (WM1716) [%]	cleaved PARP positive nuclei fraction (WM1745) [%]	cleaved PARP positive nuclei fraction (WM3526) [%]	cleaved PARP positive nuclei fraction (WM3619) [%]	cleaved PARP positive nuclei fraction (WM451Lu) [%]	cleaved PARP positive nuclei fraction (SkMel5) [%]	cleaved PARP positive nuclei fraction (UACC257) [%]
Cc1cc(Nc2cc(N3CCN(C)CC3)nc(Sc3ccc(NC(=O)C4CC4)cc3)n2)n[nH]1 [Tozasertib] + CCCS(=O)(=O)Nc1ccc(F)c(C(=O)c2c[nH]c3ncc(Cl)cc23)c1F [PLX4720] (first compound 0.006 µM, partner dose 0.08 µM) in the list: 101	97.5	75.1	72.1	86.1	107	117	1270	167	33.5	105	290	99.1	32.4	–	–
CC[C@]1(O)C[C@H]2CN(CCc3c([nH]c4ccccc34)[C@@](C(=O)OC)(c3cc4c(cc3OC)N(C=O)[C@H]3[C@@](O)(C(=O)OC)[C@H](OC(C)=O)[C@]5(CC)C=CCN6CC[C@]43[C@@H]65)C2)C1 [vincristine] + CO[C@H]1C[C@@H]2CC[C@@H](C)[C@@](O)(O2)C(=O)C(=O)N2CCCC[C@H]2C(=O)O[C@H]([C@H](C)C[C@@H]2CC[C@@H](OCCO)[C@H](OC)C2)CC(=O)[C@H](C)/C=C(\C)[C@@H](O)[C@@H](OC)C(=O)[C@H](C)C[C@H](C)/C=C/C=C/C=C/1C [everolimus] (first compound 0.0001 µM, partner dose 0.02 µM) in the list: 85	285	164	131	747	–	178	1580	2350	189	129	71.6	207	203	–	–
